This continues a long series; more values of the same kind are listed elsewhere.
Tested on: CHD
Experiment: Meta-analysis of CARE and WOSCOPS combined, synergy index, CHD endpoint
Assay type: in vivo, human
Excerpt: Tables 4-5 provide meta-analyses of CARE and WOSCOPS combined (2nd section of each table) for two endpoints (CHD and CVD) and three genetic models (dominant, recessive, and additive), as well as logistic regression analyses of CARE (3rd section of each table) and WOSCOPS (4th section of each table) individually.
Tables 12 and 17 provide results of meta-analysis of the CARE and WOSCOPS sample sets combined by direct genotyping and by imputing genotypes.
“P” indicates the p-value, and “P(R)” (or “P.R.”) indicates the p-value random effect. Both of these are p-values corresponding to a statistical test of whether the combined synergy index is equal to one but use different assumptions to derive the p-value. “P” is calculated using a fixed effects model, and “P(R)” is calculated using a random effects model.
“OR” indicates the odds ratio (synergy index) calculated from a fixed effects model, and “OR(R)” (or “OR.R.”) indicates the odds ratio (synergy index) calculated from a random effects model.

[1] = rs2163046 allele A DOMINANT Imputed
[2] = rs2180286 allele G DOMINANT Imputed
[3] = rs2180684 allele A DOMINANT Imputed
[4] = rs2188079 allele C ADDITIVE Imputed
[5] = rs2188079 allele C GENOTYPIC Imputed
[6] = rs2190598 allele T DOMINANT Imputed
[7] = rs2190600 allele A DOMINANT Imputed
[8] = rs2224184 allele T DOMINANT Genotyped
[9] = rs2247066 allele A DOMINANT Imputed
[10] = rs2248236 allele C ADDITIVE Imputed
[11] = rs2248236 allele C DOMINANT Imputed
[12] = rs2265733 allele C ADDITIVE Imputed
[13] = rs2265733 allele C DOMINANT Imputed
[14] = rs2270584 allele A ADDITIVE Imputed
[15] = rs2270584 allele A DOMINANT Imputed
[16] = rs2270586 allele A ADDITIVE Imputed
[17] = rs2270586 allele A DOMINANT Imputed
[18] = rs2317057 allele T ADDITIVE Imputed
[19] = rs2322100 allele T RECESSIVE Genotyped
[20] = rs2322101 allele A RECESSIVE Imputed
[21] = rs2327929 allele G RECESSIVE Imputed
[22] = rs2332844 allele A ADDITIVE Imputed
[23] = rs2332844 allele A RECESSIVE Imputed
[24] = rs2349170 allele G DOMINANT Imputed
[25] = rs2356722 allele G DOMINANT Imputed
[26] = rs2364956 allele T ADDITIVE Imputed
[27] = rs2373793 allele G ADDITIVE Imputed
[28] = rs2373793 allele G DOMINANT Imputed
[29] = rs2383903 allele G DOMINANT Imputed
[30] = rs2387945 allele G DOMINANT Imputed
[31] = rs2389863 allele A DOMINANT Imputed
[32] = rs2389866 allele C DOMINANT Imputed
[33] = rs2389869 allele C DOMINANT Imputed
[34] = rs2389870 allele C DOMINANT Genotyped
[35] = rs2418494 allele G ADDITIVE Imputed
[36] = rs2418494 allele G GENOTYPIC Imputed
[37] = rs2418541 allele A DOMINANT Imputed
[38] = rs2418542 allele A DOMINANT Imputed
[39] = rs2423556 allele C DOMINANT Imputed
[40] = rs2437688 allele C ADDITIVE Imputed
[41] = rs2456809 allele G DOMINANT Imputed
[42] = rs2456811 allele T ADDITIVE Imputed
[43] = rs2456811 allele T DOMINANT Imputed
[44] = rs2476976 allele C DOMINANT Imputed
[45] = rs2484911 allele A DOMINANT Imputed

## CC[C@H](C)C(=O)O[C@H]1C[C@H](O)C=C2C=C[C@H](C)[C@H](CC[C@@H](O)C[C@@H](O)CC(=O)O)[C@H]21 [Pravastatin, pravastatin]
rs2158961 allele G DOMINANT Imputed
  OR(R): 0.6715
[1]
  OR: 1.4873
  OR(R): 1.4873
[2]
  OR: 0.6528
  OR(R): 0.6528
[3]
  OR: 1.6598
  OR(R): 1.6598
rs2184393, A1 (non-ref) G, A2 (ref) A
  Meta-analysis OR: 0.70
[4]
  OR: 1.3978
  OR(R): 1.3978
[5]
  OR: 2.0195
  OR(R): 2.0195
[6]
  OR: 0.6712
  OR(R): 0.6712
[7]
  OR: 0.6775
  OR(R): 0.6775
[8]
  OR: 0.6621
  OR(R): 0.6621
rs2231496 allele G vs A (ref)
  Meta-analysis OR: 0.72
[9]
  OR: 0.6306
  OR(R): 0.6306
[10]
  OR: 0.6815
  OR(R): 0.6815
[11]
  OR: 0.619
  OR(R): 0.619
rs2263901 allele G vs A (ref)
  Meta-analysis OR: 1.48
rs2263920 allele G vs A (ref)
  Meta-analysis OR: 0.46
rs2265346 allele C vs A (ref)
  Meta-analysis OR: 0.54
[12]
  OR: 0.6664
  OR(R): 0.6664
[13]
  OR: 0.6016
  OR(R): 0.6016
[14]
  OR: 0.7239
  OR(R): 0.7239
[15]
  OR: 0.5915
  OR(R): 0.5915
[16]
  OR: 0.7243
  OR(R): 0.7243
[17]
  OR: 0.5928
  OR(R): 0.5928
rs2274473 allele G vs A (ref)
  Meta-analysis OR: 0.55
[18]
  OR: 0.7151
  OR(R): 0.7151
[19]
  OR: 2.0921
  OR(R): 2.0921
[20]
  OR: 2.0923
  OR(R): 2.0923
[21]
  OR: 1.7968
  OR(R): 1.7968
[22]
  OR: 1.7997
  OR(R): 1.7997
[23]
  OR: 1.8396
  OR(R): 1.8396
[24]
  OR: 1.5226
  OR(R): 1.5226
[25]
  OR: 0.6136
  OR(R): 0.6136
[26]
  OR: 1.5326
  OR(R): 1.5326
[27]
  OR: 1.4555
  OR(R): 1.4555
[28]
  OR: 1.5984
  OR(R): 1.5984
[29]
  OR: 0.6336
  OR(R): 0.6336
[30]
  OR: 1.4967
  OR(R): 1.4967
[31]
  OR: 0.6585
  OR(R): 0.6585
[32]
  OR: 0.6536
  OR(R): 0.6536
[33]
  OR: 0.6536
  OR(R): 0.6536
[34]
  OR: 0.6945
  OR(R): 0.6945
[35]
  OR: 0.7772
  OR(R): 0.7772
[36]
  OR: 0.5989
  OR(R): 0.5989
[37]
  OR: 0.6661
  OR(R): 0.6661
[38]
  OR: 0.6679
  OR(R): 0.6679
[39]
  OR: 0.6507
  OR(R): 0.6507
[40]
  OR: 1.4661
  OR(R): 1.4661
[41]
  OR: 0.6286
  OR(R): 0.6286
[42]
  OR: 0.6679
  OR(R): 0.6679
[43]
  OR: 0.6034
  OR(R): 0.6034
[44]
  OR: 1.5277
  OR(R): 1.5277
[45]
  OR: 1.5304
  OR(R): 1.5304

Source: patent publication US10563263B2, “Genetic polymorphisms associated with statin response and cardiovascular diseases, methods of detection and uses thereof” (CELERA CORPORATION, priority 2010, dated 2020)
